Assay results from the supplement of paper PMC10849652.
This is one part of the list.

By UniProt entry, the sequences of proteins in these tests, tags left out. Where a name states a change or a piece, a line headed by the entry shows the natural chain unless it says otherwise.
UniProt O14936: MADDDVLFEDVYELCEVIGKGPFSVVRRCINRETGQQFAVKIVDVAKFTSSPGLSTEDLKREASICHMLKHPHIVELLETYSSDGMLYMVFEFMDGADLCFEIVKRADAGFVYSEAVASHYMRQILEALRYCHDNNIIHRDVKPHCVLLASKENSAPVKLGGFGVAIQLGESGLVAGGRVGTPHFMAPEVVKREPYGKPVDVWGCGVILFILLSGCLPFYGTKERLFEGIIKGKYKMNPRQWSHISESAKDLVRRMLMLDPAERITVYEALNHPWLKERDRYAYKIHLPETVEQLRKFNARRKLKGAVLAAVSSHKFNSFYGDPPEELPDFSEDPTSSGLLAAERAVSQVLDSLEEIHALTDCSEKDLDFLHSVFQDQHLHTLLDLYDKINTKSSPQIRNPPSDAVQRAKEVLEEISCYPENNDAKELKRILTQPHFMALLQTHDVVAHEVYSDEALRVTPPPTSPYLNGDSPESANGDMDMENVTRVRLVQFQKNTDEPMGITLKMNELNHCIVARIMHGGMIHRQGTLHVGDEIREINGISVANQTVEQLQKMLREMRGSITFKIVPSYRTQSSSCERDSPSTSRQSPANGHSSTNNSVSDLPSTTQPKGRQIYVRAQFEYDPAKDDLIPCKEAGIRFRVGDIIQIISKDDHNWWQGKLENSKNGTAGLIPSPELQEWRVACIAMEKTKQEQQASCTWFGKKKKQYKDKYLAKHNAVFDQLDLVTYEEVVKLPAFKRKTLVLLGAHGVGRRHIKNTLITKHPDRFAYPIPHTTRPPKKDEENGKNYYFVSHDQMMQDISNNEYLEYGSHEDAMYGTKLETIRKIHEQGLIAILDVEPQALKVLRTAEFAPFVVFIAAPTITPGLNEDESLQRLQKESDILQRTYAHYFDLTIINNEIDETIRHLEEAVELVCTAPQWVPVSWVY
UniProt Q8N350: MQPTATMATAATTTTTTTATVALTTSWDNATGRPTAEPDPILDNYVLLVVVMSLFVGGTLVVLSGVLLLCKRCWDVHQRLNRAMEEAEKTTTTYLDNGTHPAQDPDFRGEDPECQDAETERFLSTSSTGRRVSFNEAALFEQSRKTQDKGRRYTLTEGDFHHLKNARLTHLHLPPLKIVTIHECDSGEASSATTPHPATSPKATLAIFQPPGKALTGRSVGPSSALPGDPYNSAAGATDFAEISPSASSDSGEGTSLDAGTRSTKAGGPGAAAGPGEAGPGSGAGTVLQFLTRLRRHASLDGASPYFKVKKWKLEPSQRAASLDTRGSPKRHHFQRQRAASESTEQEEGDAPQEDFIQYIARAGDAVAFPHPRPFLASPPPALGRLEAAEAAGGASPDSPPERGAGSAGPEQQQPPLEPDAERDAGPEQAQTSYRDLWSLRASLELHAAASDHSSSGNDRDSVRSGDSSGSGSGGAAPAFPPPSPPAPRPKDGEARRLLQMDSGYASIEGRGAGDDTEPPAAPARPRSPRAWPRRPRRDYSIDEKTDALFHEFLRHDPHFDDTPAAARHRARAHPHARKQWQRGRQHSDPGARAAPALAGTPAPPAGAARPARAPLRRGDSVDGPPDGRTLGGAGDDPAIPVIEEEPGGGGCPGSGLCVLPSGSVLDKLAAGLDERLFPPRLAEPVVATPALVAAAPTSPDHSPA
UniProt Q96F63: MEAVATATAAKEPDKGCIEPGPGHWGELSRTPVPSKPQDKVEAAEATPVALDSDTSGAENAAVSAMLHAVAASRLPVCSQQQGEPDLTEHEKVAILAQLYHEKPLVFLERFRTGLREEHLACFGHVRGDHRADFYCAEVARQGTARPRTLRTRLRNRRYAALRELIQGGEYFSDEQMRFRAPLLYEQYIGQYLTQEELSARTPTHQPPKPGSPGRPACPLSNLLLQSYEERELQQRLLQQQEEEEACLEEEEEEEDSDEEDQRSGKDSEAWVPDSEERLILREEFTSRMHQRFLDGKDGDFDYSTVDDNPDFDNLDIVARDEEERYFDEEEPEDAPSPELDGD
UniProt P21926: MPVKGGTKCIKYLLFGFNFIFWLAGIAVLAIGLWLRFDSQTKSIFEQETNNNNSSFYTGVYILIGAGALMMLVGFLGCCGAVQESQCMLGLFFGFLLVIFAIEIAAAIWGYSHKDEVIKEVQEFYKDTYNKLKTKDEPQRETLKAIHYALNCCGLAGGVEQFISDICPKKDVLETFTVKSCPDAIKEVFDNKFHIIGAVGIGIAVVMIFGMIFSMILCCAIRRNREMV
UniProt Q9BWV3: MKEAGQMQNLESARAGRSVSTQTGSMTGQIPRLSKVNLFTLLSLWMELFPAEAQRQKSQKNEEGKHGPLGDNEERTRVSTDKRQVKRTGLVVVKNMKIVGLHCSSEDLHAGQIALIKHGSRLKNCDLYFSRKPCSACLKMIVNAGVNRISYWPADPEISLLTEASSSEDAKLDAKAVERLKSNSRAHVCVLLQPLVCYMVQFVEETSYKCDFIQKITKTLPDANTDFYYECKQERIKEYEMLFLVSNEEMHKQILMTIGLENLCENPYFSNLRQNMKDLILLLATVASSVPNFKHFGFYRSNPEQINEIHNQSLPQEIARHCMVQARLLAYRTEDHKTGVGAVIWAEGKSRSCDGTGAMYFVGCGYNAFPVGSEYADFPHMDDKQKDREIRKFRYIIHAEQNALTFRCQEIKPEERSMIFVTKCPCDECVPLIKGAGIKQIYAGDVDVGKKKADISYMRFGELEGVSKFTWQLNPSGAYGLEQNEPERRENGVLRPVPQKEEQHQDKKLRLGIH
UniProt O43439: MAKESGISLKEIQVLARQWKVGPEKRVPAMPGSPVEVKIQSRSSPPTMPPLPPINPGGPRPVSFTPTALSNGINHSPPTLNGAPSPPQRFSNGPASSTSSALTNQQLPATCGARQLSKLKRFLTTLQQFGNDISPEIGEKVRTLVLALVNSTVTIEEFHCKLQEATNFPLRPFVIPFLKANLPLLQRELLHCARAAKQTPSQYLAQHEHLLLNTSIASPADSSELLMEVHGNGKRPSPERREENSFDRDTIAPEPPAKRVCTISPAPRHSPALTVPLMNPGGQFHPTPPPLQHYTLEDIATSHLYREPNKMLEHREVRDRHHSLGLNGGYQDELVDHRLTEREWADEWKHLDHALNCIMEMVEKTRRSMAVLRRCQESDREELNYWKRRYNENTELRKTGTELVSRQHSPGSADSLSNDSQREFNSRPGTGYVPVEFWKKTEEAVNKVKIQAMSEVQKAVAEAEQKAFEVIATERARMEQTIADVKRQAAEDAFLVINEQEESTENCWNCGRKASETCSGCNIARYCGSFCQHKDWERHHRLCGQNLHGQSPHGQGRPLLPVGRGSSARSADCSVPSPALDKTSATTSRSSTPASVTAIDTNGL
UniProt Q96A19: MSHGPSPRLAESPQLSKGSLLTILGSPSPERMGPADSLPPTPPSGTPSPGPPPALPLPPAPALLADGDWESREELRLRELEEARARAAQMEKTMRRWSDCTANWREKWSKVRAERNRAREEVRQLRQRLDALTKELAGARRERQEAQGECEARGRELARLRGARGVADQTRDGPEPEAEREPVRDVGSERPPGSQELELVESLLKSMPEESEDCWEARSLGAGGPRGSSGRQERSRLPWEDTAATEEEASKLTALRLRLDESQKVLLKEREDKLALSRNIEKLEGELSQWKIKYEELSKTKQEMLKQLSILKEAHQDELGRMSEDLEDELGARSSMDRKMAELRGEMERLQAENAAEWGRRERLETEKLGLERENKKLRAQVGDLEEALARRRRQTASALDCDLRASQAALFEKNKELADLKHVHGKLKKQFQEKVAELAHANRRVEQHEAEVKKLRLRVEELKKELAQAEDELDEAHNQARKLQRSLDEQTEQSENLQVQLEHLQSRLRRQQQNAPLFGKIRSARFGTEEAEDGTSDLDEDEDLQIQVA
UniProt Q96S94: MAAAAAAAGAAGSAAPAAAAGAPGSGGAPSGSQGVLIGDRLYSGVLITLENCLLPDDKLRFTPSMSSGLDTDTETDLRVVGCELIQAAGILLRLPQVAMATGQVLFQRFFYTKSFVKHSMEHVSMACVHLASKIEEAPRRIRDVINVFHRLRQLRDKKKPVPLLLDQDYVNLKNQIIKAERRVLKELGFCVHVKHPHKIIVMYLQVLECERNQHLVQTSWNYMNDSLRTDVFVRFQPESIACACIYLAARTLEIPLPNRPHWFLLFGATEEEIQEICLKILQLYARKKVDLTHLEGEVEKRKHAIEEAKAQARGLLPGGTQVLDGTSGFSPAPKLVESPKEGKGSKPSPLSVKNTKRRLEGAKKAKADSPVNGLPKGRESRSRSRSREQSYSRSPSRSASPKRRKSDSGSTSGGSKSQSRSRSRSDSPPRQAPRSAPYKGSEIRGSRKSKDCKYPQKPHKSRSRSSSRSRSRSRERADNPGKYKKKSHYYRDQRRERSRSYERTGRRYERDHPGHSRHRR
UniProt Q6YHK3: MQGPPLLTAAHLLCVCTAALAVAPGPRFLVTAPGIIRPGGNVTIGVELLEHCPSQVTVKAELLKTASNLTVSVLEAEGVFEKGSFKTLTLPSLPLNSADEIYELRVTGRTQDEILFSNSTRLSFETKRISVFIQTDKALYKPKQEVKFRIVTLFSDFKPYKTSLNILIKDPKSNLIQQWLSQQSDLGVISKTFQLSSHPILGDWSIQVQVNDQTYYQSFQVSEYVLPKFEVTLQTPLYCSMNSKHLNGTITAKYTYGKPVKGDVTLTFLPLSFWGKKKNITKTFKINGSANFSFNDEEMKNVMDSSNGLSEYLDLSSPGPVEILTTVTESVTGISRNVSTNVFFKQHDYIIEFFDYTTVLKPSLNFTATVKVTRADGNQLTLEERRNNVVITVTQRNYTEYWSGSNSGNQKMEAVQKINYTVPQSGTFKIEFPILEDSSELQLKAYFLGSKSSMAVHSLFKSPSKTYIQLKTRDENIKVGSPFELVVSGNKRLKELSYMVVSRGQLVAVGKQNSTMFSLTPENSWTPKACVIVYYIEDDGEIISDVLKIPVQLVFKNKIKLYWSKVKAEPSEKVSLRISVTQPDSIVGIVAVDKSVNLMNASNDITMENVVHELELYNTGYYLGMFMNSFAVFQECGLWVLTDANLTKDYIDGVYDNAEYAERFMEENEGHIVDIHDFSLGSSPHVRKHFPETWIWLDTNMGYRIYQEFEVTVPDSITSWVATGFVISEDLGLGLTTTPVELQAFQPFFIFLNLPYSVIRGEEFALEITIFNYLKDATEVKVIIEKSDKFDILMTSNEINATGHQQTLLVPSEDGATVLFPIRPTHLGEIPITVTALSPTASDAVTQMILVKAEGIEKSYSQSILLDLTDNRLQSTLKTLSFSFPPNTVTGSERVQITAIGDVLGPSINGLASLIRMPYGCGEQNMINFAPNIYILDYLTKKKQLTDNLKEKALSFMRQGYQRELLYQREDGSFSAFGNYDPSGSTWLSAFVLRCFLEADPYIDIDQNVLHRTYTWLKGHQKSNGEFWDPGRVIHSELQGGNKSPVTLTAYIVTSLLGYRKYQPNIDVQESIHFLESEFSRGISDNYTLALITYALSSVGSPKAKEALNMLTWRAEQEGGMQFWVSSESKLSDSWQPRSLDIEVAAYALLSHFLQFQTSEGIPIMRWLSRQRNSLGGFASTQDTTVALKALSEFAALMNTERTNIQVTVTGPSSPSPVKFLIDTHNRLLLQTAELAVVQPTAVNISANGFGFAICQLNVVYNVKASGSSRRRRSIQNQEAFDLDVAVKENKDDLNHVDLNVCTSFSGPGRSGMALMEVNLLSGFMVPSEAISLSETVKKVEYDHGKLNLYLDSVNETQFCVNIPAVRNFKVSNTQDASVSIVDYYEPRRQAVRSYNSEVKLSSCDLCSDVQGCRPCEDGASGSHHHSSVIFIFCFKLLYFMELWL
UniProt Q9HC52: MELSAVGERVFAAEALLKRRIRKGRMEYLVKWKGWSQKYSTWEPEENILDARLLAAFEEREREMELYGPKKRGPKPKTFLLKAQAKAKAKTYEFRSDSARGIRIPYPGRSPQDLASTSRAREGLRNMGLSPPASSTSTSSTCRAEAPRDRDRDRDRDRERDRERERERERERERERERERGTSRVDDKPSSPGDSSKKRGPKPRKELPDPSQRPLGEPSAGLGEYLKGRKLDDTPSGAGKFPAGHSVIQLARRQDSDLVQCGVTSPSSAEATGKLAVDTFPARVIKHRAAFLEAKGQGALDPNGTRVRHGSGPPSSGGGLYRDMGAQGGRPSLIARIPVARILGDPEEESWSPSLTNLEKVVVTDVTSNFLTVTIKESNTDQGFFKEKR
UniProt Q13951, whole entry, looked up: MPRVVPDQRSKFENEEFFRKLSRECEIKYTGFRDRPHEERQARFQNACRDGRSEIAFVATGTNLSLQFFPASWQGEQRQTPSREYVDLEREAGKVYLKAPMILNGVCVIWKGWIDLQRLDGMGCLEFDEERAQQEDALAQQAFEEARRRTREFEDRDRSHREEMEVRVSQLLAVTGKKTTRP

Columns and labels:
Assay in all cases: log2 fold change, soluble protein after heating vs DMSO (PISA); higher = thermal stabilisation; K562 cells, 10 uM, 30 min; active = over 0.2 and 3.5 SD of the protein, either way, in both replicates (recomputed)
[1] = compound: COC1=CC=C(C=C1)CN2C=CC3=C2C=C(C=C3)C(=O)NO
Outline: (§1)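 K562 cells at 2×10^6 cells/mL were exposed to 10 μM compound for 30 min, then aliquots were heated for 3 min across 48°C-58°C, pooled, and extracted in PBS containing 0.5% NP-40 at 4°C. The supernatant after 21,000xg for 90 min was taken as soluble protein and measured by TMTpro 16plex LC-MS/MS with channel sums equalised. Thermal stability is reported relative to control samples, with values from duplicates. Fold changes are given on a log2 scale.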

[2] = compound: CON(C)C(=O)N1N=C(c2cc(F)ccc2F)S[C@@]1(CCCN)c1ccccc1 [filanesib]
Outline: as §1

[3] = compound: CO[C@H]1C[C@@H]2CC[C@@H](C)[C@@](O)(O2)C(=O)C(=O)N2CCCC[C@H]2C(=O)O[C@H]([C@H](C)C[C@@H]2CC[C@H](n3cnnn3)[C@H](OC)C2)CC(=O)[C@H](C)/C=C(\C)[C@@H](O)[C@@H](OC)C(=O)[C@H](C)C[C@H](C)/C=C/C=C/C=C/1C [zotarolimus]
Outline: as §1

[4] = compound: COc1cc(C(=O)O)ccc1NC(=O)[C@@H]1N[C@@H](CC(C)(C)C)[C@](C#N)(c2ccc(Cl)cc2F)[C@H]1c1cccc(Cl)c1F [idasanutlin]
Outline: as §1

[5] = compound: COc1cc2nc(-c3cc(F)ccc3O)nc(N[C@@H]3CNC[C@H]3C(C)(C)O)c2cc1OC
Outline: as §1

[6] = compound: COc1cc2ncnc(Nc3ccc(F)c(Cl)c3)c2cc1OCCCN1CCOCC1 [gefitinib]
Outline: as §1

[7] = compound: CS(=O)(=O)CCNCc1ccc(-c2ccc3ncnc(Nc4ccc(OCc5cccc(F)c5)c(Cl)c4)c3c2)o1 [lapatinib]
Outline: as §1

[8] = compound: CS(=O)(=O)c1ccc(-c2cnc(N)c(C(=O)Nc3ccccc3)n2)cc1
Outline: as §1

[9] = compound: C[C@@H](Oc1cc(-c2cnn(C3CCNCC3)c2)cnc1N)c1c(Cl)ccc(F)c1Cl [crizotinib]
Outline: as §1

[10] = compound: C[C@H](C1=CC=C(C=C1)C(=O)NC2=C3C=CNC3=NC=C2)N
Outline: as §1

[11] = compound: C[C@H](Nc1ncnc2nc[nH]c12)c1cc2cccc(Cl)c2c(=O)n1-c1ccccc1 [duvelisib]
Outline: as §1

[12] = compound: Cc1cc(Nc2cc(N3CCN(C)CC3)nc(Sc3ccc(NC(=O)C4CC4)cc3)n2)n[nH]1 [tozasertib]
Outline: as §1

[13] = compound: Cc1cc(SCc2sc(-c3ccc(C(F)(F)F)cc3)nc2C)ccc1OCC(=O)O
Outline: as §1

[14] = compound: Cc1ccc(-n2nc(C(C)(C)C)cc2NC(=O)Nc2ccc(OCCN3CCOCC3)c3ccccc23)cc1 [doramapimod]
Outline: as §1

[15] = compound: Cc1ccc(C(=O)N(CCCN)[C@@H](c2nc3cc(Cl)ccc3c(=O)n2Cc2ccccc2)C(C)C)cc1 [ispinesib]
Outline: as §1

[16] = compound: CS(=O)(=O)N1CCN(Cc2cc3nc(-c4cccc5[nH]ncc45)nc(N4CCOCC4)c3s2)CC1 [pictilisib]
Outline: as §1

[17] = compound: C[C@@H]1COCCN1C2=NC(=NC(=C2)C3(CC3)S(=O)(=O)C)C4=C5C=CNC5=CC=C4
Outline: as §1

[18] = compound: Cc1cc(Nc2cc(CN3CCOCC3)c3nc(C)c(Cc4ccc(Cl)cc4F)n3n2)n[nH]1 [gandotinib]
Outline: as §1

[19] = compound: COc1cc(Nc2ncc3c(n2)-c2ccc(Cl)cc2C(c2c(F)cccc2OC)=NC3)ccc1C(=O)O [alisertib]
Outline: as §1

[20] = compound: COc1cccc2cc(-c3nc([C@H]4CC[C@H](C(=O)O)CC4)n4ncnc(N)c34)[nH]c12
Outline: as §1

Measured: log2 fold change

CBLL1 (UniProt Q75N03)
inactive: [1] -0.08 | [2] -0.028 | [3] -0.03 | [4] 0.071 | [5] 0.129 | [6] -0.41 | [7] 0.067 | [8] -0.026 | [9] -0.039 | [10] 0.067 | [11] -0.184 | [12] -0.021 | [13] 0.123 | [14] 0.005 | [15] 0.114

CCNY (UniProt Q8ND76)
inactive: [1] -0.056 | [2] -0.4 | [3] -0.235 | [4] 0.119 | [5] 0.085 | [6] 0.242 | [7] 0.033 | [16] 0.091 | [8] 0.253 | [9] 0.09 | [17] 0.037 | [10] 0.017 | [11] -0.116 | [18] -0.137 | [12] -0.126 | [13] 0.053 | [14] 0.054 | [15] -0.132

CASK (UniProt O14936)
inactive: [1] 0.046 | [4] -0.031 | [13] -0.039 | [14] 0.034

CBARP (UniProt Q8N350)
inactive: [1] 0.05 | [2] 0.037 | [3] 0.166 | [4] -0.089 | [6] -0.01 | [16] 0.126 | [8] 0.12 | [9] -0.069 | [17] 0.02 | [10] 0.045 | [11] -0.032 | [18] -0.061 | [12] -0.16 | [13] -0.13 | [14] 0.042 | [15] 0.058

CCDC97 (UniProt Q96F63)
inactive: [1] 0.031 | [2] -0.015 | [3] 0.12 | [4] 0.045 | [19] -0.285 | [5] -0.063 | [6] 0.062 | [20] 0.009 | [7] 0.031 | [8] -0.039 | [9] -0.038 | [17] -0.017 | [10] 0.061 | [11] 0.034 | [12] -0.008 | [13] 0.056 | [14] -0.002 | [15] -0.041

CD2BP2 (UniProt O95400)
inactive: [1] -0.007 | [5] 0.106 | [7] 0.104 | [9] 0.04 | [17] -0.157 | [11] 0.065 | [12] 0.16 | [13] -0.068 | [14] 0.012

CD9 (UniProt P21926)
inactive: [1] 0.059 | [2] -0.021 | [3] -0.08 | [4] 0.004 | [16] 0.07 | [8] 0.069 | [9] 0 | [17] 0.085 | [10] -0.233 | [11] 0.121 | [18] -0.053 | [12] -0.012 | [13] 0.029 | [14] -0.204

CDADC1 (UniProt Q9BWV3)
inactive: [1] 0.149 | [9] 0.147 | [14] -0.04

CCND3 (UniProt P30281)
inactive: [3] -0.035 | [4] -0.036 | [19] -0.043 | [5] -0.276 | [20] 0.012 | [7] 0.083 | [16] 0.03 | [17] -0.271 | [10] 0.096 | [18] -0.027 | [13] 0.058 | [15] -0.116

CASP7 isoform 3 (UniProt P55210)
inactive: [6] 0.282 | [16] 0.234 | [17] 0.3 | [18] -0.155 | [13] -0.271

CBFA2T2 isoform 4 (UniProt O43439)
inactive: [16] 0.037 | [18] 0.047

CCDC102A (UniProt Q96A19)
inactive: [3] -0.088 | [4] 0.012 | [5] 0.008 | [7] 0.171 | [16] 0.302 | [17] 0.076 | [10] -0.296 | [18] -0.086

2 successive entries already listed, for reference:
CBLL1 (UniProt Q75N03)
inactive: [1] -0.08 | [2] -0.028 | [3] -0.03 | [4] 0.071 | [5] 0.129 | [6] -0.41 | [7] 0.067 | [8] -0.026 | [9] -0.039 | [10] 0.067 | [11] -0.184 | [12] -0.021 | [13] 0.123 | [14] 0.005 | [15] 0.114

CCNY (UniProt Q8ND76)
inactive: [1] -0.056 | [2] -0.4 | [3] -0.235 | [4] 0.119 | [5] 0.085 | [6] 0.242 | [7] 0.033 | [16] 0.091 | [8] 0.253 | [9] 0.09 | [17] 0.037 | [10] 0.017 | [11] -0.116 | [18] -0.137 | [12] -0.126 | [13] 0.053 | [14] 0.054 | [15] -0.132

Additional entries

CCNL2 (UniProt Q96S94)
inactive: [2] -0.421 | [6] 0.019 | [8] 0.049 | [17] 0.273

CAV1 (UniProt F8WDM7)
inactive: [3] -0.139 | [10] 0.51

CDC27 (UniProt G5EA36)
inactive: [3] -0.019 | [5] -0.183 | [7] 0.178 | [17] -0.131 | [10] 0.418 | [12] -0.013 | [15] 0.144

CD109 (UniProt Q6YHK3)
inactive: [16] 0.201 | [11] -0.154 | [18] -0.331 | [13] -0.369

CCNE1 (UniProt P24864)
inactive: [4] -0.126 | [5] 0.128 | [7] 0.058 | [16] -0.192 | [17] -0.273 | [11] 0.204 | [18] 0.004 | [12] 0.133 | [13] -0.097 | [15] 0.102

CBX8 (UniProt Q9HC52)
inactive: [3] 0.265 | [10] 0.291 | [11] 0.093 | [13] 0.175 | [15] 0.028

CBFB (UniProt Q13951)
inactive: [3] -0.012 | [4] -0.031 | [19] -0.011 | [6] -0.109 | [20] 0.15 | [10] 0.015 | [11] 0.202 | [12] 0.088 | [13] 0.071 | [15] 0.036
